Source: PubChem BioAssay AID1224826 (NIAID, 2016)

Assay: 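Genes that change LPS-induced Tnf promoter activity in mouse macrophages when knocked down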 (primary screen)
Cell system: RAW264.7 G9 macrophages from mouse bearing reporters for p65 (GFP) and the Tnf promoter (mCherry)
Knock-down reagent: siRNA pool against mouse genes, 100 nM
Time to read-out: 16 h of LPS stimulation, after 2 days of siRNA transfection
Challenge: bacterial lipopolysaccharide (Salmonella minnesota R595), 10 ng/ml
Read-out: 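Nuclear mCherry signal of the Tnf promoter reporter measured by imaging after background removal, scaled to each plate median and turned into robust z-scores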
Scale: Tnf reporter robust z-score: higher = stronger Tnf promoter reporter signal after LPS
Hit rule: 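a well counts as active at a score of -1.3 or below (Tlr4 knock-down control median) or above 3 (raised signal); controls and wells holding fewer than 50 cells are excluded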
Calls: active = Tnf reporter clearly lowered or raised; inactive = no clear change in Tnf reporter
This is an unselected part of about 17,000 deposited reagents. About 1,110 of them (6.6%) count as active. 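Active means lowered or raised reporter signal; replicate intensities are raw and not normalised per plate.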 Not all columns of the deposit are shown. No sequences are given here.

Glis3 [SID315478464]
- fewer than 50 cells in well: fewer than 50 cells per well; well left out of calls
- Outcome: inactive

Itga5 [SID315467507]
- Tnf reporter robust z-score: 0.57
- fewer than 50 cells in well: enough cells in well
- Outcome: inactive

Acsm5 [SID315480970]
- Tnf reporter robust z-score: 0.51
- fewer than 50 cells in well: enough cells in well
- Outcome: inactive

Pknox1 [SID315468555]
- Tnf reporter robust z-score: 0.56
- fewer than 50 cells in well: enough cells in well
- Outcome: inactive

Lias [SID315475679]
- Tnf reporter robust z-score: 0.69
- fewer than 50 cells in well: enough cells in well
- Outcome: inactive

Slc40a1 [SID315471135]
- Tnf reporter robust z-score: 1.06
- fewer than 50 cells in well: enough cells in well
- Outcome: inactive

Keg1 [SID315472119]
- Tnf reporter robust z-score: 0.66
- fewer than 50 cells in well: enough cells in well
- Outcome: inactive

Bdp1 [SID315481974]
- Tnf reporter robust z-score: -0.6
- fewer than 50 cells in well: enough cells in well
- Outcome: inactive

Ipo4 [SID315475196]
- Tnf reporter robust z-score: -1.74
- fewer than 50 cells in well: enough cells in well
- Outcome: active

Uts2 [SID315470330]
- fewer than 50 cells in well: fewer than 50 cells per well; well left out of calls
- Outcome: inactive

Saxo6 [SID315467881]
- Tnf reporter robust z-score: -0.46
- fewer than 50 cells in well: enough cells in well
- Outcome: inactive

Diaph3 [SID315471520]
- Tnf reporter robust z-score: -0.31
- fewer than 50 cells in well: enough cells in well
- Outcome: inactive

Rps21 [SID315472468]
- Tnf reporter robust z-score: -0.36
- fewer than 50 cells in well: enough cells in well
- Outcome: inactive

Gpr12 [SID315466985]
- Tnf reporter robust z-score: -1.55
- fewer than 50 cells in well: enough cells in well
- Outcome: active

Or1l4 [SID315480310]
- Tnf reporter robust z-score: -0.25
- fewer than 50 cells in well: enough cells in well
- Outcome: inactive

Ptpro [SID315468820]
- Tnf reporter robust z-score: 0.57
- fewer than 50 cells in well: enough cells in well
- Outcome: inactive

Quoted from the listing (2 entries):
Bdp1 [SID315481974]
- Tnf reporter robust z-score: -0.6
- fewer than 50 cells in well: enough cells in well
- Outcome: inactive

Ipo4 [SID315475196]
- Tnf reporter robust z-score: -1.74
- fewer than 50 cells in well: enough cells in well
- Outcome: active

Continued.
Tnfrsf9 [SID315469771]
- Tnf reporter robust z-score: -0.97
- fewer than 50 cells in well: enough cells in well
- Outcome: inactive

H2-Eb1 [SID315467107]
- Tnf reporter robust z-score: -0.28
- fewer than 50 cells in well: enough cells in well
- Outcome: inactive

Gabarap [SID315471567]
- Tnf reporter robust z-score: -0.01
- fewer than 50 cells in well: enough cells in well
- Outcome: inactive

Trim69 [SID315474158]
- Tnf reporter robust z-score: 2.36
- fewer than 50 cells in well: enough cells in well
- Outcome: inactive

Usp9y [SID315476650]
- Tnf reporter robust z-score: 0.41
- fewer than 50 cells in well: enough cells in well
- Outcome: inactive

Comp [SID315466072]
- Tnf reporter robust z-score: 0.94
- fewer than 50 cells in well: enough cells in well
- Outcome: inactive

Vmn1r65 [SID315475778]
- Tnf reporter robust z-score: 2.25
- fewer than 50 cells in well: enough cells in well
- Outcome: inactive

Cyfip2 [SID315475398]
- Tnf reporter robust z-score: -0.7
- fewer than 50 cells in well: enough cells in well
- Outcome: inactive

Ascl3 [SID315471682]
- Tnf reporter robust z-score: -1.83
- fewer than 50 cells in well: enough cells in well
- Outcome: active

Scube2 [SID315471683]
- Tnf reporter robust z-score: -0.1
- fewer than 50 cells in well: enough cells in well
- Outcome: inactive

Ms4a8a [SID315472095]
- Tnf reporter robust z-score: 0.32
- fewer than 50 cells in well: enough cells in well
- Outcome: inactive
